This passage reports binding results from publication PMC6700064.

Protein sequences, listed by entry. Tags and fused reporters are not part of them.
UniProt Q9H1P3: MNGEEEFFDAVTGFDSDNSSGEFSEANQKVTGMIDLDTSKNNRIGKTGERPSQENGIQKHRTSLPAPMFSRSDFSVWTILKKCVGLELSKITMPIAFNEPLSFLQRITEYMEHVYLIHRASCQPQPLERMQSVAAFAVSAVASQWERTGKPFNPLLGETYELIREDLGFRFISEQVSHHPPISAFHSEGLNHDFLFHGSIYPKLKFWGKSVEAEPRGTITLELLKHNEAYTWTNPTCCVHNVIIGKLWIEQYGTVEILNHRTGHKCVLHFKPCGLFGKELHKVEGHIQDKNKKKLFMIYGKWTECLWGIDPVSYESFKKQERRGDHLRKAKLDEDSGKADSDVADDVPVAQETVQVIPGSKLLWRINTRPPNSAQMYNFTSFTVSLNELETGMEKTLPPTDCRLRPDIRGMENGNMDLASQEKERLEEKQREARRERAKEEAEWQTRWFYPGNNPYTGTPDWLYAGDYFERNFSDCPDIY
UniProt P31939: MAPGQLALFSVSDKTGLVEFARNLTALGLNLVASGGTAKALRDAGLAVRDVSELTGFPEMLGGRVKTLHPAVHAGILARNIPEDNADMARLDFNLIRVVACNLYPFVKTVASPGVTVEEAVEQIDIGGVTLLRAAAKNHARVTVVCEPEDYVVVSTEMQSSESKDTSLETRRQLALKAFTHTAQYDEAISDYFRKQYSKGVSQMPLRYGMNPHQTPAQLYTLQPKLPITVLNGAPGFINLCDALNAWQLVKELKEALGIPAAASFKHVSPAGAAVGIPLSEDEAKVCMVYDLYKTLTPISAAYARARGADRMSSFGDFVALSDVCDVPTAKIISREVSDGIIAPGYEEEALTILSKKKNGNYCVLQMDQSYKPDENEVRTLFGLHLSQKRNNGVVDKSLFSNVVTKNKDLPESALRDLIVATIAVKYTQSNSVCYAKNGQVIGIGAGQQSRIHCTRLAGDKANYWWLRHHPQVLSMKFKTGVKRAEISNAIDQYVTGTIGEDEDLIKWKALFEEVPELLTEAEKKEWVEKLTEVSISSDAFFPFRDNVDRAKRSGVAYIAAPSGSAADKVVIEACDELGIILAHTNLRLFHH

This experiment concerns the target Flag-tagged OSBPL2 (oxysterol-binding protein like 2) (UniProt Q9H1P3). Put plainly: affinity purification with mass spectrometry; Flag-tagged OSBPL2 expressed in HEK293Ta cells; complexes pulled down with anti-Flag magnetic beads; protein bands subjected to LC-MS/MS.

No constants are given. Whether binding was seen depends on the method and setting. In cells and extracts the contact can be indirect. These calls come from enrichment with a bait or labelling near it, and not all partners need be listed.

As to “ATIC found by mass spectrometry in Flag-OSBPL2 complexes from HEK293Ta cells (from UniProt P31939 1-592) (enzyme)”, the binding result was “binds”.
